Data as given in PubChem BioAssay AID1159578 (Peter MacCallum Cancer Centre, 2015).

Screen: 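Knock-downs that alter how fast lymphatic endothelial cells migrate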 (primary screen)
Cells: human lymphatic endothelial cells
Reagents: siRNA pool against human genes, 40 nM
Duration: 48 h after transfection
Read-out: 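Cells stained with dye and imaged after a scratch; covered wound area and nuclei counted, duplicates averaged, migration set against mock wells and turned into a robust z-score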
Reading the numbers: migration robust z-score: higher = faster migration into the scratch; nuclei per well: higher = more cells in the well
Active means: 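Pools averaging fewer than 3300 nuclei are never called; remaining pools count as changed when migration robust z lies outside -2 to 2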
Calls: active = migration changed; inactive = no migration change, or too few cells
Here is an unselected part of about 18,000 deposited reagents. Of all reagents, about 1,030 (5.7%) got an active call. 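Inactive calls also include pools with fewer than 3300 nuclei, whose migration was not assessed.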 The raw values are shown without normalisation. Not all columns of the deposit are shown.

Gene,migration robust z-score,"nuclei per well, duplicate mean",call
LLGL2 (GeneID 3993),0.91,5020,inactive
MTERF2 (GeneID 80298),0.56,5852,inactive
LOC389834 (GeneID 389834),-0.34,5270,inactive
PSG11 (GeneID 5680),0.46,6190,inactive
SSMEM1 (GeneID 136263),-2.16,5988,active
ZFP90 (GeneID 146198),-0.2,5597,inactive
RNF208 (GeneID 727800),1.22,6642,inactive
AKR7L (GeneID 246181),-0.35,6072,inactive
GPR18 (GeneID 2841),1.25,4406,inactive
CXCL2 (GeneID 2920),-0.33,5930,inactive
M1AP (GeneID 130951),-1.19,4376,inactive
TSACC (GeneID 128229),0.75,4346,inactive
CLPSL2 (GeneID 389383),1.06,4470,inactive
HERC2P3 (GeneID 283755),-1.12,4314,inactive
ATOX1 (GeneID 475),0.43,5508,inactive
MYCN (GeneID 4613),-0.35,7467,inactive
GAS2L1 (GeneID 10634),-0.29,6101,inactive
ZNF804A (GeneID 91752),-0.56,4858,inactive
ZNF579 (GeneID 163033),0,4662,inactive
SEC61A1 (GeneID 29927),0.79,5670,inactive
ADAMTS8 (GeneID 11095),0.23,5360,inactive
KLHL27 (GeneID 3652),1.03,5170,inactive
ZNF114 (GeneID 163071),-1.95,4702,inactive
PRH2 (GeneID 5555),-1.27,5806,inactive
SMTN (GeneID 6525),1.87,5052,inactive
GH2 (GeneID 2689),0.61,5096,inactive
ZNF560 (GeneID 147741),2.76,8246,active
FAM114A1 (GeneID 92689),-0.84,3410,inactive
RCCD1 (GeneID 91433),-0.36,4980,inactive
NLGN3 (GeneID 54413),0.57,4713,inactive
AP4M1 (GeneID 9179),-1.44,5044,inactive
EGF (GeneID 1950),-0.96,4071,inactive
ZBTB41 (GeneID 360023),0.74,6836,inactive
FOXD4 (GeneID 2298),-0.24,6400,inactive
KRT39 (GeneID 390792),0.26,5606,inactive
AXIN2 (GeneID 8313),0.36,5496,inactive
TSPY3 (GeneID 728137),-2.23,5180,active
HOXC12 (GeneID 3228),-0.38,4363,inactive
VAT1 (GeneID 10493),0.24,5594,inactive
OR8U3 (GeneID 219479),-0.54,6350,inactive
EIF2S1 (GeneID 1965),0.46,5116,inactive
RBBP5 (GeneID 5929),0.32,5940,inactive
NUMBL (GeneID 9253),0.34,5866,inactive
OR8S1 (GeneID 341568),0.52,6076,inactive
GPC5 (GeneID 2262),-0.04,5082,inactive
KREMEN2 (GeneID 79412),-0.55,4102,inactive
CDH12 (GeneID 1010),0.95,6018,inactive
SPSB4 (GeneID 92369),-0.21,5060,inactive
SERINC4 (GeneID 619189),1.07,6406,inactive
ARHGEF12 (GeneID 23365),0.52,4650,inactive
SLC2A6 (GeneID 11182),1.68,4713,inactive
PIK3CD (GeneID 5293),-1.09,6306,inactive
PGLYRP3 (GeneID 114771),-0.91,5492,inactive
SMR3B (GeneID 10879),-2.74,2781,inactive
SFRP1 (GeneID 6422),0.6,5724,inactive
SCHIP1 (GeneID 29970),-0.05,5816,inactive
SPATA7 (GeneID 55812),0.99,6978,inactive
